# Source: patent publication US6875748B2, “Compositions and methods for in vivo delivery of polynucleotide-based therapeutics” (Vical Incorporated, priority 2000, dated 2005)
# At least one structure is not confirmed: it was looked up by name or label, or the drawing left a doubt.
# Test system: mouse quadriceps muscle
# Experiment: Luciferase expression in mouse quadriceps muscle after i.m. injection of plasmid VR1255 with auxiliary agents
smiles,measurement,value
C[C@H](CCC(=O)O)[C@H]1CC[C@H]2[C@@H]3CC[C@@H]4C[C@H](O)CC[C@]4(C)[C@H]3C[C@H](O)[C@]12C [deoxycholic acid],ability to enhance in vivo expression relative to identical composition without the compound,no ability to enhance
